For assay [1], the target named is myc-tagged Ubc13 (UniProt P61088). The experiment in a line: co-IP; anti-myc immunoprecipitation (protein G PLUS/protein A-agarose, five washes in lysis buffer) from Triton-X-soluble lysates of transfected HEK293 cells, immunoblot of the prey; cells untreated or treated with MG132 (1 or 2 uM, 16 h), PSI, lactacystin or DMSO; in some panels with co-expressed HA-synphilin-1 or YFP-Mfn2. A general note: Immunoblotting shows a protein as a band on a membrane.

Chains of the proteins cited; added tags and fusions are not shown.
UniProt P61088: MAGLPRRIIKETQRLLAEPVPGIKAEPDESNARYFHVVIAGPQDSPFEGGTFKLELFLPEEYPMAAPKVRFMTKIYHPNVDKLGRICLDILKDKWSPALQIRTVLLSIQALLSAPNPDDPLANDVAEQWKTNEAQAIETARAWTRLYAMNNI
UniProt O60260: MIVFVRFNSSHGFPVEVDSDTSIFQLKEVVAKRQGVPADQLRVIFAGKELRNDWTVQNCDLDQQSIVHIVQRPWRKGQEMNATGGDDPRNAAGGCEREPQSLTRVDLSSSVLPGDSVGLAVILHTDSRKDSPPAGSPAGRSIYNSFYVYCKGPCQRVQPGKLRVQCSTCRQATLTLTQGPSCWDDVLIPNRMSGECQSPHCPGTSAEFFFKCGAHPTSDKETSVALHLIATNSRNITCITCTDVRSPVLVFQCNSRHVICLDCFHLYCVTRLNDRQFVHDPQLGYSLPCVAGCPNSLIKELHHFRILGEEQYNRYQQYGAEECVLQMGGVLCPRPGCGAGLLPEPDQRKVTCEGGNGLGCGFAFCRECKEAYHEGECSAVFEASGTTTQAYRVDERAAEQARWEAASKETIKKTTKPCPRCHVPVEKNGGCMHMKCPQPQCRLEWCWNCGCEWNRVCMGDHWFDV
UniProt Q9UNE7: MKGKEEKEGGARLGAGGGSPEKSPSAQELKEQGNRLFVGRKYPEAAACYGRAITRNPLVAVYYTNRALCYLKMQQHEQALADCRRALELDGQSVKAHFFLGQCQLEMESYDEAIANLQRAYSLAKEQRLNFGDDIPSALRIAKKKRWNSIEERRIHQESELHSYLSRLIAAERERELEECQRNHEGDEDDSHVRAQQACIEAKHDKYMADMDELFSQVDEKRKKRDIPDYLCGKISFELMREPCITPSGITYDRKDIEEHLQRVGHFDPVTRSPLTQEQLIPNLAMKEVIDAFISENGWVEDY

Assay [2] shares this target. Kind of assay: co-IP; anti-Ubc13 immunoprecipitation from Triton-X-soluble lysates of transfected HEK293 cells, immunoblot of the prey; cells untreated or treated with MG132; in one panel with co-expressed myc-DJ-1 L166P.

These are yes or no findings as the source states them, for the method shown. Binding seen in cells or lysates may run through a third protein. Some binding calls cover weakened binding; strength is not graded here.

In article PMC3759450 one finds binding data, which are given here for three substances.

Consider “FLAG-tagged parkin (wild type) (from UniProt O60260 1-465) (enzyme)”, for which the binding result with myc-tagged Ubc13 [1] and with myc-tagged Ubc13 [2] was “binds” each time.

Take “myc-tagged CHIP (from UniProt Q9UNE7 1-303) (enzyme)”: in the assay with myc-tagged Ubc13 [2], the binding result was “binds”.

Turning to “untagged full length parkin (from UniProt O60260 1-465) (enzyme)”, the binding entry with myc-tagged Ubc13 [1] is “binds”.
